Laboratory results: PubChem BioAssay AID743121 (NCATS, 2013)
This is an unselected part of about 26,000 deposited reagents. Over the whole deposit, 167 (0.63%) were called active. 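Calls are per gene from RSA p-values that are not deposited; an individual active-marked siRNA can sensitise only weakly.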 Reagents against one gene are numbered here.

- Test: 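Partners whose loss is lethal together with topoisomerase I blockade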 (primary screen)
- Cell system: MDA-MB-231 cells, a human breast cancer line
- Knock-down reagent: single siRNA against human genes, 20 nM siRNA (0.8 pmol per well)
- Duration: 120 h (drug added 48 h after transfection, read 72 h later)
- Treatment: camptothecin 20 nM (about EC30) for 72 h; vehicle 0.1% DMSO in parallel plates
- Measured: 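Cell viability by ATP luminescence (CellTiter-Glo) as % of non-targeting siRNA wells, and the log2 ratio of viability without drug over viability with camptothecin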
- Reading the numbers: log2 vehicle/camptothecin viability: higher = stronger sensitisation to camptothecin; viability with camptothecin and viability without drug: higher = more viable cells
- Active means: 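Active genes have an RSA gene-level p-value below 0.001, computed from the ratios of their separate siRNAs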

log2 vehicle/camptothecin viability	viability with camptothecin (% of control)	viability without drug (% of control)	call	gene	siRNA no.
-0.168	106	94.4	inactive	GJA1	1
0.158	66.4	74.1	inactive	GJA1	2
0.32	55.3	69.1	inactive	GJA1	3
0.89	45.9	85.1	inactive	PRKAA1	1
0.15	73.6	81.6	inactive	PRKAA1	2
0.1	70.3	75.4	inactive	PRKAA1	3
-0.581	73.1	48.9	inactive	PRKAA1	4
-0.417	122	91.5	inactive	SSPOP	1
1.94	18.8	72.3	inactive	TNFRSF11A	1
-0.444	65.9	48.4	inactive	TNFRSF11A	2
-0.299	55.1	44.8	inactive	TNFRSF11A	3
-0.205	93.6	81.2	inactive	SMURF1	1
-0.132	65.5	59.7	inactive	SMURF1	2
0.0678	90.7	95	inactive	SMURF1	3
0.0159	80.7	81.6	inactive	SMURF1	4
0.005	102	102	inactive	MSL2	1
-0.0543	86.8	83.6	inactive	MSL2	2
-0.494	91.2	64.8	inactive	MSL2	3
-0.138	93	84.5	inactive	MSL2	4
0.0735	52.9	55.6	inactive	NRTN	1
-0.493	72.3	51.4	inactive	NRTN	2
0.0877	53.3	56.6	inactive	NRTN	3
-0.454	90.1	65.8	inactive	NRTN	4
-0.409	81.8	61.6	inactive	FBXO46	1
-0.0168	37	36.6	inactive	FBXO46	2
-0.102	95.1	88.6	inactive	FBXO46	3
-0.0631	72.2	69.1	inactive	FBXO46	4
0.296	60.8	74.7	inactive	COG1	1
-0.0822	79.6	75.2	inactive	COG1	2
-0.204	95.7	83.1	inactive	COG1	3
-0.406	33.6	25.3	inactive	COG1	4

Already shown: an excerpt of the list.
log2 vehicle/camptothecin viability	viability with camptothecin (% of control)	viability without drug (% of control)	call	gene	siRNA no.
-0.132	65.5	59.7	inactive	SMURF1	2
0.0678	90.7	95	inactive	SMURF1	3
